What follows are substances tested on tumor tissue samples (assay: Identification and relative quantitation of HLA-presented tumor associated peptides by LC-MS (presentation profile)). Settings: HLA-B*44 cancer tissues vs HLA-B*44 normal samples (N=15 normal, N=25 tumor); FIGS. 1M-1N.
Parameters: species or system human

Substance | over-presentation of peptide in cancer tissues compared to normal samples
SEQ ID NO.: 362 (SEKGVIQVY; listed as Homo sapiens) | over-presentation

Same assay, conditions: cancer entities on which the tumor-associated peptide was found presented (HLA ligandome LC-MS); abbreviations per table footnote

Substance | Peptide Presentation on cancer entities
454 (KVYTPSISK; listed as Homo sapiens) [compound 454] | GBM, HCC, MEL, UEC
51 (KYALLLQEL; listed as Homo sapiens) [compound 51] | AML, CLL, GBM, GC, HCC, MEL, OC, PRCA, RCC, UEC
351 (EEVNYINTF; listed as Homo sapiens) [compound 351] | AML, MEL, NHL, OC
148 (GTEFTTILY; listed as Homo sapiens) [compound 148] | GC, NHL, OSCAR, PRCA
43 (IQMDEPMAF; listed as Homo sapiens) [compound 43] | AML, MEL, OC
423 (NLDAVHDITVAY; listed as Homo sapiens) [compound 423] | GC, MEL, PRCA, UEC
97 (VLALVNSTV; listed as Homo sapiens) [compound 97] | CLL
71 (SYMVLAPVF; listed as Homo sapiens) [compound 71] | MEL
457 (SINKPTSER; listed as Homo sapiens) [compound 457] | GBM
342 (HEFSSPSHL; listed as Homo sapiens) [compound 342] | NHL
278 (HPMIDINGIIVF; listed as Homo sapiens) [compound 278] | UEC
108 (MIIALSLYI; listed as Homo sapiens) [compound 108] | AML, BRCA
273 (MPLLWLRGF; listed as Homo sapiens) [compound 273] | UEC
347 (ALNPYQYQY; listed as Homo sapiens) [compound 347] | UEC
172 (RTDSCSSAQAQY; listed as Homo sapiens) [compound 172] | MEL
196 (WMFFVINY; listed as Homo sapiens) [compound 196] | UEC
424 (NLDEEKQLLY; listed as Homo sapiens) [compound 424] | MEL, PRCA
285 (FPSFLTNSL; listed as Homo sapiens) [compound 285] | AML
136 (ATDLVVLDRY; listed as Homo sapiens) [compound 136] | GBM, GC, HCC, MEL, NHL, OSCAR, PRCA, UEC
395 (ASEASRLAHY; listed as Homo sapiens) [compound 395] | GBM, GC, NHL, PRCA, UEC
488 (TEFPIIKMY; listed as Homo sapiens) [compound 488] | AML, MEL, NHL, OC, PRCA
93 (TLQEKILQV; listed as Homo sapiens) [compound 93] | CLL, GBM, NHL
63 (VMPSDSFFF; listed as Homo sapiens) [compound 63] | MEL, NHL, OC, UEC
38 (KYTNWKAFL; listed as Homo sapiens) [compound 38] | AML, HCC
394 (ASEAEMRLFY; listed as Homo sapiens) [compound 394] | GBM, GC, MEL, NHL
480 (GEVSGLTKDF; listed as Homo sapiens) [compound 480] | MEL, NHL, OC
36 (KQMEDGHTLF; listed as Homo sapiens) [compound 36] | AML, OC
